These are yes or no findings as the source states them, for the method shown. Binding seen in cells or lysates may run through a third protein. Some binding calls cover weakened binding; strength is not graded here.

Protein sequences, listed by entry. Tags and fused reporters are not part of them.
UniProt P12814: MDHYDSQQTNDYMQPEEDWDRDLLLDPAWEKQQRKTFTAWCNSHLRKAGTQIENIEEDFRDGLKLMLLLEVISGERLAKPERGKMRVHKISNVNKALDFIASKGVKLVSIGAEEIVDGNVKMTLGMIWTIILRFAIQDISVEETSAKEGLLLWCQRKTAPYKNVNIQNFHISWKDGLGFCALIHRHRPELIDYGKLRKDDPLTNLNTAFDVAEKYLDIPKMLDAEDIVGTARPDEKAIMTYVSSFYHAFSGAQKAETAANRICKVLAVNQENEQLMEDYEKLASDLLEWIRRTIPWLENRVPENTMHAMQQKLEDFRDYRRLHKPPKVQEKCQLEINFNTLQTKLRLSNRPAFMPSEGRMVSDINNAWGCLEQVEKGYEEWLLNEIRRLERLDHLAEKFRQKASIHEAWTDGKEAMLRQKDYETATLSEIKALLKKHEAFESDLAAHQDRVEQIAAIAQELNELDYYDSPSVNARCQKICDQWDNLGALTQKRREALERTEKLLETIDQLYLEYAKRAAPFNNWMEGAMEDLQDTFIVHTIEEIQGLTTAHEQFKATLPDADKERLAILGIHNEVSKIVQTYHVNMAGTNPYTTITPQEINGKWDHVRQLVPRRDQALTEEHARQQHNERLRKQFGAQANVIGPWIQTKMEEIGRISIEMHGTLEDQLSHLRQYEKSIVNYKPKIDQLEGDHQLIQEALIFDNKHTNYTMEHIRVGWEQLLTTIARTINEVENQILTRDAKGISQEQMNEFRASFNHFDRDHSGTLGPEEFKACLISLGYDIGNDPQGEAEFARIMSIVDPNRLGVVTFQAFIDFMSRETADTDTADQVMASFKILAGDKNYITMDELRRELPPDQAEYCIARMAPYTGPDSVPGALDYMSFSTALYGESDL
UniProt Q9NR12: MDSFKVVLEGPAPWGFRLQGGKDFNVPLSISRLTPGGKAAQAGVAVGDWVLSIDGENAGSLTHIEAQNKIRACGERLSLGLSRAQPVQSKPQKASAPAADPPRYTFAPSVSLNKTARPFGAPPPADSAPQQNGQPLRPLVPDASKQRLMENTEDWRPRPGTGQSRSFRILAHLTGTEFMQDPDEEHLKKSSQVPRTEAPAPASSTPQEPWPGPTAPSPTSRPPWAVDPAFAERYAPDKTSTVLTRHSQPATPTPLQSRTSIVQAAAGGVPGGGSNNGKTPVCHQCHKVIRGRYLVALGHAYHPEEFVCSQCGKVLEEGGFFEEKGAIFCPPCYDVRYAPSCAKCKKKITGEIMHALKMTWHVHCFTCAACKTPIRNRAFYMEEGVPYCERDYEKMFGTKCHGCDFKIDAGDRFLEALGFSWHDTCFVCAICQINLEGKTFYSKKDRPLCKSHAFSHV

Experiment [1] concerns the target GFP-tagged human YAP (pEGFP C3-YAP2) (human) (UniProt P46937). The experiment is described as follows: co-IP; GFP-Trap-M beads, lysate of transfected HEK293T cells; lysis buffer 10 mM Tris-HCl pH 7.5, 150 mM NaCl, 0.5% NP-40, 0.5 mM EDTA; 1 h, three washes; blots with anti-PDLIM5 and anti-PDLIM7.
Experiment [2] deals with GFP-tagged α-actinin 1 (pEGFP-N1 α-actinin 1) (UniProt P12814). The experiment is described as follows: co-IP; IP of GFP-tagged α-actinin 1 from human Caco2 cells, blots for PDLIM5 and PDLIM7.
Experiment [3] has as its target endogenous YAP of Caco-2 cells (human (endogenous in Caco-2)) (UniProt P46937). Description: co-IP; endogenous IP: mouse anti-YAP antibody (63.7), 3 μg, on Dynabeads; Caco-2 lysates processed as for the overexpression co-IPs.

With “PDLIM7 (Enigma) in HEK293T lysate (from UniProt Q9NR12 1-457)”, the binding result in experiment [1] was “binds”.
As for “endogenous PDLIM7 (Enigma) of Caco-2 cells (from UniProt Q9NR12 1-457)”, the binding result in experiment [2] and in experiment [3] was “binds” each time.

The values are drawn from publication PMC6262774.
